According to patent publication US12062422B2, “System, method and computer-accessible medium for use of heavy water as a probe for imaging metabolic activities” (The Trustees of Columbia University in the City of New York, priority 2018, dated 2024):

Experiments:
Format in all cases: in vivo
mice = experiment: Protein synthesis tracking in mice, D2O versus D-AAs via drinking water; conditions: 25% D2O or 2 mg/ml of D-AAs via drinking water, 8 days
C. elegans = experiment: DO-SRS imaging of lipogenesis in C. elegans; conditions: for CDL/CHL ratio: 20% D2O plates
sebaceous glands = experiment: DO-SRS imaging of sebaceous glands of mice drinking D2O
[1] = extrapolated detection limit, SRS at 2135 cm^−1

## [2H]O[2H] [D2O, deuterium oxide]
mice
  CDP signal in digestive tract and liver: much stronger signal
  CDP signal in hippocampus, cortex, muscle and thymus: strong CD signal
C. elegans; animals fed on D-labeled bacteria
  CDL/CHL ratio: approximately 22.3%
C. elegans; animals fed on non-labeled bacteria
  CDL/CHL ratio: approximately 3.1%
C. elegans; 20% D2O treatment
  CDL signal compared to 4 mM deuterated palmitic acid: over two-fold stronger CDL signal
Sebaceous glands; 3-month old mice, 25% D2O, day 26
  CDL/CHL ratio: approximately 0.2
Sebaceous glands; [1]
  D2O administration needed for S/N higher than 2: 0.3%
  D2O administration sufficient for signal-to-noise ratio (S/N) of 10: 1.4%
Sebaceous glands; mice, 4% D2O as drinking water
  C-D signals in sebaceous glands: easily detectable C-D signals
Sebaceous glands; mice, 25% D2O as drinking water
  increase in C-D signal compared to mice drinking 4% D2O: 6 fold
